Values joined by “and” are separate entries in the source; they are usually repeats but may differ in a detail not shown here. Identical values can stand only once. The source gives many values for each of these; only a part stands here.
Test: TD Phase (Groups 1 and 3): plasma and ocular tissue concentrations and pharmacokinetics of Compound 18 and its metabolite Compound 4 after once daily ocular instillation of Compound 18 nanosuspension for 7 days
Format: in vivo, New Zealand white rabbits
Conditions: individual animals; for Final Compound 18 Trabecular Meshwork Conc.: BQL set to 0; for Compound 18 Sclera/Choroid Homogenate Conc.: homogenate dilution factor 8; for Compound 18 Trahecular Meshwork Homogenate Conc.: homogenate dilution factor 20
Excerpt: This example illustrates the procedures and results for the levels of Compound 18 and its metabolite Compound 4 in plasma and ocular tissues of normotensive rabbits following ocular instillation of Compound 18 once daily for 7 consecutive days.
Twenty five (25) male New Zealand white rabbits were divided into 5 groups of varying amounts of animals per group.
The Test article, Compound 18 was formulated as a 2% nanosuspension in DI water containing 0.2% PS80 (polyoxyethylenesorbitan, monooleate (Tween 80)) and 0.4% HPMC (hydroxypropylmethylcellulose) at pH 6.77. Referred to herein as “Compound 18 nanosuspension.”
The study consisted of three groups (Groups 1-3) of 19 male rabbits (NZW) that underwent once daily morning ocular installation (1 eyedrop) for 7 consecutive days (Day 0-6). Groups 4-5 each consisted of 3 male rabbits (NZW) that were not dosed.
Blood samples (1 mL) were collected from the jugular vein at the intervals set out below for each group. The samples were then inverted several times following collection and held on wet ice until centrifuged. Samples were centrifuged within 60 minutes of collection under refrigeration (set at 5° C. for 10 minutes at 2000 g.
Group 1 (Pilot Study, terminal blood collection): blood was collected from 3 animals at 1 hour post day 7 dose of Compound 18 nanosuspension.
Group 3 (TD Phase, terminal blood collection): blood was collected from 3 animals at 0.5 hour, 3 animals at 2 hours, 3 animals at 4 hours, and 3 animals at 8 hours post day 7 dose of Compound 18 nanosuspension.
(§1) Group 1 (Pilot Study): 3 animals were terminated at 1 hour post Day 7 dose of Compound 18 nanosuspension. Following blood collection and termination, ocular tissues (aqueous humor, vitreous humor, cornea, iris/ciliary body, lens, optic nerve, retina, sclera/choroid, and trabecular meshwork) were collected from each animal and the tissue weights were recorded. Note: sclera and choroid were collected together. Iris and ciliary body were collected together.
as §1, with “3 (TD Phase):” for “1 (Pilot Study):”, “0.5 hour, 3 animals at 2 hours, 3 animals at 4 hours, and 3 animals at 8 hours” for “1 hour”
Plasma and tissue samples from treated animals (Groups 1-3) were analyzed for Compound 18 and its metabolite Compound 4 concentrations by LC-MS/MS.
Pharmacokinetic analysis was conducted using WinNonlin Version 6.2.1 (Pharsight, Mountain View, Calif.), operating as a validated software system. Noncompartmental analysis was conducted using the extravascular administration model for ocular instillation dosing.
The peak plasma and ocular tissue concentration, time to achieve peak plasma and ocular tissue concentration, half-life, and area under the plasma and ocular tissue concentration-time curve (Cmax, Tmax, T1/2, and AUC) were calculated from the TD phase combined with the pilot study mean animal plasma and ocular tissue concentrations for each sampling time/dose group for Compound 18 and its metabolite Compound 4.
BA Assay: Quantitation Range 0.05 to 100 ng/mL for Compound 18, 0.15 to 100 ng/mL for Compound 4.
3. Pipet 50 μL of each type of pre-spiked ocular tissue samples (AH/VH) for QC samples, 50 μL of incurred aqueous humor, and vitreous humor sample (if applicable) into a 96 well plate.
Ocular Tissues Homogenate Preparation: Incurred rabbit ocular tissues were weighed in Genogrinder tubes (plastic tubes with small beads) at the time of removal from the animal and stored frozen (<−70° C.) until analysis. The rabbit incurred ocular tissues were thawed on wet ice. […]

CCCc1nn(C)c2c(=O)[nH]c(-c3cc(S(=O)(=O)N4CC(CCCO[N+](=O)[O-])C4)ccc3OCC)nc12 [Compound 18, 3-(1-((4-ethoxy-3-(1-methyl-7-oxo-3-propyl-6,7-dihydro-1H-pyrazolo[4,3-d]pyrimidin-5-yl)phenyl)sulfonyl)azetidin-3-yl)propyl nitrate]
Final Compound 18 Sclera/Choroid Conc. (Group 1, 1 h): 44.6 ng/g and 60.1 ng/g | Final Compound 18 Trabecular Meshwork Conc. (Group 1, 1 h): 0 ng/g and 15.7 ng/g and 7.32 ng/g | Compound 18 Sclera/Choroid Homogenate Conc. (Group 1, 1 h): 5.57 ng/mL and 7.51 ng/mL | Compound 18 Trahecular Meshwork Homogenate Conc. (Group 1, 1 h): 0.785 ng/mL and 0.366 ng/mL | Final Compound 18 Trabecular Meshwork Conc. (Group 3, 0.5 h): 2.92 ng/g and 0 ng/g and 18.1 ng/g | Compound 18 Trahecular Meshwork Homogenate Conc. (Group 3, 0.5 h): 0.146 ng/mL and 0.907 ng/mL | Final Compound 18 Sclera/Choroid Conc. (Group 3, 2 h): 31.4 ng/g and 674 ng/g and 31.9 ng/g | Final Compound 18 Trabecular Meshwork Conc. (Group 3, 2 h): 1.78 ng/g and 3.58 ng/g and 0 ng/g | Compound 18 Sclera/Choroid Homogenate Conc. (Group 3, 2 h): 3.93 ng/mL and 84.2 ng/mL and 3.99 ng/mL | Compound 18 Trahecular Meshwork Homogenate Conc. (Group 3, 2 h): 0.0890 ng/mL and 0.179 ng/mL | Final Compound 18 Sclera/Choroid Conc. (Group 3, 4 h): 63.4 ng/g and 20.6 ng/g and 640 ng/g | Final Compound 18 Trabecular Meshwork Conc. (Group 3, 4 h): 4.62 ng/g and 3.24 ng/g and 8.70 ng/g | Compound 18 Sclera/Choroid Homogenate Conc. (Group 3, 4 h): 7.93 ng/mL and 2.57 ng/mL and 80.0 ng/mL | Compound 18 Trahecular Meshwork Homogenate Conc. (Group 3, 4 h): 0.231 ng/mL and 0.162 ng/mL and 0.435 ng/mL | Final Compound 18 Sclera/Choroid Conc. (Group 3, 8 h): 16.2 ng/g and 31.8 ng/g and 32.5 ng/g | Final Compound 18 Trabecular Meshwork Conc. (Group 3, 8 h): 0 ng/g and 4.74 ng/g and 1.06 ng/g | Compound 18 Sclera/Choroid Homogenate Conc. (Group 3, 8 h): 2.02 ng/mL and 3.97 ng/mL and 4.06 ng/mL | Compound 18 Trahecular Meshwork Homogenate Conc. (Group 3, 8 h): 0.237 ng/mL and 0.0532 ng/mL

From patent publication US20220153746A1, “NITROGEN OXIDE-DONATING PDE-5 AND/OR PDE-6 INHIBITOR COMPOUNDS, AND USES THEREOF” (ILDONG PHARMACEUTICAL CO., LTD., priority 2020, published 2022)
